{"source": "PubChem BioAssay AID1259405 (NCATS, 2018)", "aim": "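Knock-downs that lift recombinant protein yield in hamster ovary cells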 (primary screen)", "system": "Chinese hamster CHO-K1 ovary cells with stable secreted eGFP expression", "reagent": "single siRNA against mouse genes, 0.8 pmol siRNA per well (2 µl of 400 nM stock)", "time to read-out": "3 days", "detection": "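Per-well intracellular GFP measured by laser scanning cytometry, plus viability from ATP luminescence, each relative to plate median of non-targeting control wells, in %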", "scale": "GFP, % of control: higher = more GFP per well, higher productivity; viability (ATP), % of control: higher = more viable cells (more ATP)", "hit rule": "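Called active when intracellular GFP, relative to negative control, is at or above 120%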", "note": "The whole screen tested about 50,000 reagents; below is a part drawn at random. Of all reagents, about 4,000 (8%) got an active call. 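Mouse siRNA library applied to hamster cells; one well for each siRNA.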 Reagents against one gene are numbered here."}
{"Gene": "Ahcyl2", "reagent": 1, "GFP, % of control": 55.1, "viability (ATP), % of control": 60.3, "call": "inactive"}
{"Gene": "Ahcyl2", "reagent": 2, "GFP, % of control": 39.9, "viability (ATP), % of control": 37.3, "call": "inactive"}
{"Gene": "Ahcyl2", "reagent": 3, "GFP, % of control": 67.3, "viability (ATP), % of control": 70.2, "call": "inactive"}
{"Gene": "Wdr47", "reagent": 1, "GFP, % of control": 71.9, "viability (ATP), % of control": 78.8, "call": "inactive"}
{"Gene": "Wdr47", "reagent": 2, "GFP, % of control": 44.2, "viability (ATP), % of control": 57.5, "call": "inactive"}
{"Gene": "Wdr47", "reagent": 3, "GFP, % of control": 77.1, "viability (ATP), % of control": 72.6, "call": "inactive"}
{"Gene": "Nat8f4", "reagent": 1, "GFP, % of control": 51.2, "viability (ATP), % of control": 54.3, "call": "inactive"}
{"Gene": "Nat8f4", "reagent": 2, "GFP, % of control": 58.1, "viability (ATP), % of control": 54.2, "call": "inactive"}
{"Gene": "Nat8f4", "reagent": 3, "GFP, % of control": 36.6, "viability (ATP), % of control": 59.6, "call": "inactive"}
{"Gene": "Fga", "reagent": 1, "GFP, % of control": 96.6, "viability (ATP), % of control": 118, "call": "inactive"}
{"Gene": "Fga", "reagent": 2, "GFP, % of control": 70.8, "viability (ATP), % of control": 85.4, "call": "inactive"}
{"Gene": "Bmyc", "reagent": 1, "GFP, % of control": 30.5, "viability (ATP), % of control": 23.7, "call": "inactive"}
{"Gene": "Bmyc", "reagent": 2, "GFP, % of control": 90, "viability (ATP), % of control": 33.4, "call": "inactive"}
{"Gene": "Bmyc", "reagent": 3, "GFP, % of control": 82.2, "viability (ATP), % of control": 106, "call": "inactive"}
{"Gene": "Plppr3", "reagent": 1, "GFP, % of control": 89.2, "viability (ATP), % of control": 56.8, "call": "inactive"}
{"Gene": "Plppr3", "reagent": 2, "GFP, % of control": 84.3, "viability (ATP), % of control": 79.6, "call": "inactive"}
{"Gene": "Plppr3", "reagent": 3, "GFP, % of control": 81.8, "viability (ATP), % of control": 91.7, "call": "inactive"}
{"Gene": "Usp26", "reagent": 1, "GFP, % of control": 86.2, "viability (ATP), % of control": 93.7, "call": "inactive"}
{"Gene": "Usp26", "reagent": 2, "GFP, % of control": 83, "viability (ATP), % of control": 71.4, "call": "inactive"}
{"Gene": "Usp26", "reagent": 3, "GFP, % of control": 41.4, "viability (ATP), % of control": 52, "call": "inactive"}

Copied from the entries so far (4 entries):
{"Gene": "Bmyc", "reagent": 3, "GFP, % of control": 82.2, "viability (ATP), % of control": 106, "call": "inactive"}
{"Gene": "Plppr3", "reagent": 1, "GFP, % of control": 89.2, "viability (ATP), % of control": 56.8, "call": "inactive"}
{"Gene": "Plppr3", "reagent": 2, "GFP, % of control": 84.3, "viability (ATP), % of control": 79.6, "call": "inactive"}
{"Gene": "Plppr3", "reagent": 3, "GFP, % of control": 81.8, "viability (ATP), % of control": 91.7, "call": "inactive"}

More results follow.
{"Gene": "Ubash3b", "reagent": 1, "GFP, % of control": 75, "viability (ATP), % of control": 52.3, "call": "inactive"}
{"Gene": "Ubash3b", "reagent": 2, "GFP, % of control": 68.5, "viability (ATP), % of control": 54.4, "call": "inactive"}
{"Gene": "Ubash3b", "reagent": 3, "GFP, % of control": 105, "viability (ATP), % of control": 85.8, "call": "inactive"}
{"Gene": "Ccdc82", "reagent": 1, "GFP, % of control": 59, "viability (ATP), % of control": 92.1, "call": "inactive"}
{"Gene": "Ccdc82", "reagent": 2, "GFP, % of control": 22.3, "viability (ATP), % of control": 19.8, "call": "inactive"}
{"Gene": "Ccdc82", "reagent": 3, "GFP, % of control": 96.6, "viability (ATP), % of control": 72.6, "call": "inactive"}
{"Gene": "Slc31a2", "reagent": 1, "GFP, % of control": 60.9, "viability (ATP), % of control": 113, "call": "inactive"}
{"Gene": "Slc31a2", "reagent": 2, "GFP, % of control": 57.5, "viability (ATP), % of control": 64.9, "call": "inactive"}
{"Gene": "Slc31a2", "reagent": 3, "GFP, % of control": 79.3, "viability (ATP), % of control": 84.2, "call": "inactive"}
{"Gene": "Ltbp2", "reagent": 1, "GFP, % of control": 61.8, "viability (ATP), % of control": 76, "call": "inactive"}
{"Gene": "Ltbp2", "reagent": 2, "GFP, % of control": 70.4, "viability (ATP), % of control": 99.6, "call": "inactive"}
{"Gene": "Rnf144a", "reagent": 1, "GFP, % of control": 91.6, "viability (ATP), % of control": 87.2, "call": "inactive"}
{"Gene": "Rnf144a", "reagent": 2, "GFP, % of control": 112, "viability (ATP), % of control": 77.4, "call": "inactive"}
{"Gene": "Rnf144a", "reagent": 3, "GFP, % of control": 116, "viability (ATP), % of control": 131, "call": "inactive"}
{"Gene": "E330037G11Rik", "reagent": 1, "GFP, % of control": 35.3, "viability (ATP), % of control": 51, "call": "inactive"}
{"Gene": "E330037G11Rik", "reagent": 2, "GFP, % of control": 73.6, "viability (ATP), % of control": 89.9, "call": "inactive"}
{"Gene": "E330037G11Rik", "reagent": 3, "GFP, % of control": 69.2, "viability (ATP), % of control": 61.4, "call": "inactive"}
{"Gene": "Znrf1", "reagent": 1, "GFP, % of control": 47.9, "viability (ATP), % of control": 70.5, "call": "inactive"}
{"Gene": "Znrf1", "reagent": 2, "GFP, % of control": 91.6, "viability (ATP), % of control": 71.1, "call": "inactive"}
{"Gene": "Znrf1", "reagent": 3, "GFP, % of control": 87.5, "viability (ATP), % of control": 94, "call": "inactive"}
